The record followed here is paper PMC10403538.

Results are given in words; binding and its absence hold for the method and conditions named. A result given as binding can be weak or reduced; the word gives no strength. For part of these data: Binding seen in cells or lysates may run through a third protein. For part of these data: Where a sequence is shown, tags or fusion partners need not be part of it.

In one experiment the target is T1, pGBKT7-OsEIN2-C (rice) (UniProt Q0D8I9).
T1 sequence: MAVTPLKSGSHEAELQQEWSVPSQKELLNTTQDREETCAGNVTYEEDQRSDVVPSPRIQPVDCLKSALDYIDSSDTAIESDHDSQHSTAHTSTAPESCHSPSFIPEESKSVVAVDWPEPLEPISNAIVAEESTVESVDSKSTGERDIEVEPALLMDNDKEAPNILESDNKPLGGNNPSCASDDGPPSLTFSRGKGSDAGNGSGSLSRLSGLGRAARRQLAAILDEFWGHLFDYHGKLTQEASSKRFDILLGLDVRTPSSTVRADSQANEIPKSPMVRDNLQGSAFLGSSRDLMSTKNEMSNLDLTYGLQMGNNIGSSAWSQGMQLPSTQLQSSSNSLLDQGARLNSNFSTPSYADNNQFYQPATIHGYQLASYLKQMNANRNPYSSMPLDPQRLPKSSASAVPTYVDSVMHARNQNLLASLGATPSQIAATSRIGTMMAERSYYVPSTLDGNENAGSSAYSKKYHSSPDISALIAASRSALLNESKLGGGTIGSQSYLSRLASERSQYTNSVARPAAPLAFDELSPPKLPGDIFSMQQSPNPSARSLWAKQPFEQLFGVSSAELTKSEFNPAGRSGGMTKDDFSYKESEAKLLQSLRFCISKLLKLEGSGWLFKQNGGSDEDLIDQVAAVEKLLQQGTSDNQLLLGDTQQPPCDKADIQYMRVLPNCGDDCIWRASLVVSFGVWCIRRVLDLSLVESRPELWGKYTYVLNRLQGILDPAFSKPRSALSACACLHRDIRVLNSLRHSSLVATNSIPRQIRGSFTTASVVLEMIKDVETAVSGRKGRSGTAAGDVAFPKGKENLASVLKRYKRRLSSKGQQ
Kind of experiment: two-hybrid; yeast strain Y2H gold; prey in pGADT7, bait in pGBKT7; SD-Trp-Leu-His medium, 4 days at 30 °C.

In a further experiment the target is T2, OsEIN2-C-cYFP (rice) (UniProt Q0D8I9).
T2 sequence: T1 sequence
Kind of experiment: split reporter; BiFC, nYFP and cYFP fusions co-expressed in rice protoplasts of Osein2 mhz9 double mutant; yellow fluorescence by microscopy.

The target in a further experiment is MHZ9-3×Myc (rice). Kind of experiment: co-IP; co-expressed in rice protoplasts, 16 h in the dark; total proteins immunoprecipitated with anti-c-Myc affinity gel, 1 h at 4 °C; IP buffer 50 mM TRIS pH 7.4, 150 mM NaCl, 0.5 mM EDTA, 0.5% NP40; GFP-Myc as negative control.

Consider AD-MHZ9 (rice), for which, in the experiment with pGBKT7-OsEIN2-C (rice), the binding entry is on record as “binds”.

On to MHZ9-nYFP (rice), for which the binding result with OsEIN2-C-cYFP (rice) is given as “binds”.

B1: OsEIN2-C-3×FLAG (domain or fragment, UniProt Q0D8I9 463-1281)
chain: T1 sequence
For B1, the binding entry with MHZ9-3×Myc (rice) is “binds”.
